# Small-molecule microarray binding calls

From ROBIN, a set of small-molecule microarray screens (doi:10.1002/anie.202211358).

Targets, with sequences 5′ to 3′:
SAM-II: SAM-II riboswitch RNA pseudoknot, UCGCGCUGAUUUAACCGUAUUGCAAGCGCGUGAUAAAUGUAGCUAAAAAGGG. Hit rate about 1% of about 21,000 compounds.
TPP: TPP riboswitch RNA three-way junction, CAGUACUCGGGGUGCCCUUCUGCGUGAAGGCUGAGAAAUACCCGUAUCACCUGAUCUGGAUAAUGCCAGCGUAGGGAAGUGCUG. Hit rate about 0.7% of about 24,000 compounds.
PreQ1: PreQ1 riboswitch RNA pseudoknot, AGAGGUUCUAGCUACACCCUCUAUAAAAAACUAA. From B. subtilis. Hit rate about 0.7% of about 24,000 compounds.

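Each compound is printed as two spots on a slide made to bind it covalently, so it has no test concentration; the read-out is fluorescence of the bound, labelled oligonucleotide. The data file lists only calls. An earlier report of the laboratory on the PreQ1, TPP and SAM-II riboswitches (doi:10.1038/s41467-019-09493-3) used 1 µM RNA for 2 h and required a mean Z-score above 3 (spot signal-to-noise against the whole library), a score well above that on a control array, and duplicate spots agreeing (coefficient of variation under 100); it then also set aside compounds that hit other targets, which this list keeps. The cut-offs behind this list may differ. These are primary screening calls, not affinities; a compound without a hit may have attached poorly or may still bind in solution.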
A compound is marked 1 if it was called a hit and 0 if it was screened but was not.
The compounds are a random part of those screened.
A target missing from an entry has no call listed here.
A dash means that no call is listed here.

Compound	SAM-II	TPP	PreQ1
CN(CCC(=O)Nc1cccc(Cl)c1)CC1(CO)CCOCC1	0	0	0
OC(COc1ccc(C2CCCCC2)cc1)CN1CCCCC1 (centres undefined)	0	0	0
c1csc(-c2nnc(NC3CCCCC3)c3ccccc23)c1	0	0	0
CN(C)C1CCc2[nH]c3c(F)cc(F)cc3c2C1 (centres undefined)	0	0	0
O=C(c1ccccc1)c1ccccc1C(=O)c1ccccc1	0	0	0
Cc1c(NC(=O)c2ccc(C(C)(C)C)cc2)cccc1-c1cn(C)c(=O)c(Nc2ccc(C(=O)N3CCOCC3)cc2)n1	0	0	0
Nc1nonc1-c1nc2ccccc2n1CC(=O)Nc1ccc(F)cc1	0	0	0
CCOC(=O)c1sc2nc3c(cc2c1N)CN(C)CC3	0	0	0
COc1cc(OC)c(NC2=NS(=O)(=O)C(c3ccc(C(C)C)cc3)=C2C)cc1Cl	-	0	0
N#CC1=C(N)Oc2c(oc(CO)cc2=O)C1c1cccc(F)c1 (centres undefined)	0	0	0
CCOC(=O)C1CCN(c2c(N)c(C)nn2-c2ccccc2)CC1	-	0	0
COCCn1c2c([n+](Cc3cnccn3)c1C)C(=O)c1ccccc1C2=O	0	0	0
CCc1ccc(-n2cnnc2)cc1NC(=O)N1CCOCC(CO)C1 (centres undefined)	0	0	0
Cn1c(NCCN(CCO)CCCc2ccc([N+](=O)[O-])cc2)cc(=O)n(C)c1=O	0	0	0
Cc1ccccc1C(=O)N1CCOC2(CNCCOC2)C1 (centres undefined)	0	0	0
c1ccc(CCn2cnnc2CNC2CCOC3(CCOCC3)C2)cc1 (centres undefined)	0	0	0
O=c1[nH]c(CN(CCO)CCO)nc2c1C1(CCCCC1)Cc1ccccc1-2	0	0	0
CCn1cnnc1CCNc1cc(C2CCCNC2)nc(C)n1 (centres undefined)	0	0	0
CSCc1noc(CNC(=O)[C@H]2CNC[C@H](C(=O)N3CCCC3)C2)n1	0	0	0
COCCC1(CO)CCCN(Cc2cc(C#N)n(C)c2)C1 (centres undefined)	0	0	0
CCc1nc2nc(C)cc(NCCc3cccc(C)c3)n2n1	0	0	0
CCc1cc(N2CCC(NCCS(C)(=O)=O)CC2)nc(N2CCCC2)n1	0	0	0
CC(C)C[C@@H](C=O)NC(=O)[C@H](CC(C)C)NC(=O)[C@H](CC(C)C)NC(=O)OCc1ccccc1	0	0	0
Clc1ccc(C(c2ccccc2Cl)C(Cl)Cl)cc1 (centres undefined)	0	0	0
CNc1nsc(C(=O)c2ccc(Cl)cc2)c1N	0	0	0
O=C1CCC(=O)N1CC(O)COc1ccc(OCC(O)CN2C(=O)CCC2=O)cc1 (centres undefined)	0	0	0
OCc1cccc(-n2ccnc2-c2ccc3c(c2)OCCO3)c1	0	0	0
c1ccc2c(c1)Nc1ccncc1S2	0	0	0
CCCCc1nc(CN2CCCC3(CCNCC3)CC2)c[nH]1	0	0	0
CCc1nc2c(c(NCc3c(C)noc3C)n1)CCN(C(=O)CO)CC2	0	0	0
CSc1nc(-c2ccccc2)c(C#N)c(N(CCO)CCO)n1	-	0	0
CC(C)n1cnnc1CN(C)C1CCCNC1 (centres undefined)	0	0	0
C[C@@H](NC(=O)N1CCC2(CC1)NCCNC2=O)C1CCCCC1	0	0	0
CC1CCN(C(=O)C2CCC(CNc3c(N4CCCCC4)c(=O)c3=O)CC2)CC1 (centres undefined)	-	0	0
COc1ccc(-c2cnc(NCc3ccc(Br)cc3)n2C)cc1	0	0	0
CCc1cccc(OCCN(C)c2ncnc3c2CCNC3)c1	0	0	0
COc1ccc(C(=O)c2sc3nc4c(c(-c5cccnc5)c3c2N)CCCC4)cc1	0	0	0
COc1ccc(F)c(-c2cc(-c3ccc[nH]3)nc(N)c2C#N)c1	0	0	0
CC1(C)CC(=O)C2=C(C1)OC(N)=C(C#N)C2c1ccc(OC(=O)N2CCOCC2)cc1 (centres undefined)	0	0	0
Cc1cc2c(cc1C)NC(c1ccccn1)C1=C(CC(c3cccs3)CC1=O)N2 (centres undefined)	0	0	0
COCCNCc1cccc2[nH]ccc12	0	0	0
CCCc1nc(C(C)(C)O)c(C(=O)O)n1Cc1ccc(-c2ccccc2-c2nn[nH]n2)cc1	0	0	0
NCC1Cc2cc(-c3ccc4c(c3)OCCC4=O)cc(Cl)c2O1 (centres undefined)	0	1	1
C=CCc1ccccc1OCCn1c(C(O)CC)nc2ccccc21 (centres undefined)	-	0	0
CSc1ccc(CNC2CN3CCC2CC3)cc1 (centres undefined)	0	0	0
COc1ccc(CCNc2ncnc3sc(C)c(C)c23)cc1	-	0	0
Cc1ccc(C(N)=O)c(N2CCN(Cc3ccc(C)o3)C(CCO)C2)n1 (centres undefined)	0	0	0
N#CC1=C(N)Oc2[nH]nc(-c3ccncc3)c2C1c1ccc2c(c1)OCO2 (centres undefined)	0	0	0
Cn1c(CN2CCC3(CCC(=O)N(CCO)C3)CC2)cc2cc(F)ccc21	0	0	0
O=C1C=CC(=C2NC(c3ccncc3)=C(c3ccc(F)cc3)N2)C=C1	0	0	0
CCN1CC2(CCN(C(=O)[C@H]3Cc4ccccc4CN3)CC2)CC1=O	0	0	0
NCCSC1CC(=O)N(c2ccc(Cl)cc2)C1=O (centres undefined)	0	0	0
CCCCSc1ccc(NC2=NS(=O)(=O)c3ccccc32)cc1	0	0	0
COc1cc(OC)c(OC)cc1CNCc1ccncc1	0	0	0
CC(C)NCC(O)COCCOc1ccc(Cl)cc1.Cl (centres undefined)	0	0	0
NCCn1cc(C(=O)N2CCC(c3ccccc3)(c3ccccc3)CC2)nn1	0	1	0
O=C1C=C(NCc2cccnc2)CC(c2ccccc2)C1 (centres undefined)	0	0	0
NCc1ccc(CNC(=O)C2CCCCO2)cc1 (centres undefined)	0	0	0
CNc1oc(-c2ccc(S(=O)(=O)N3CCCCC3)cc2)nc1C#N	-	0	0
COc1ccc2cc(C3CN(c4cc(CO)ccn4)CCO3)ccc2c1 (centres undefined)	0	0	0
CCNC(=O)[C@@H]1C[C@@H](NC(=O)Cn2cc(Cl)cn2)CN1C(=O)CCO	0	0	0
COc1ccc(C=CCN2C[C@@H](CN3CCN(C)CC3)[C@@H](CO)C2)cc1	0	0	0
CCN(CC)CCn1c(=N)n(CCO)c2ccccc21	0	0	0
Cn1c(=O)c2c(nc(Cc3ccccc3)n2C)n(C)c1=O	0	0	0
Cc1ccc(CCC(=O)N2CCNCC2C(=O)N2CCCC2)cc1C (centres undefined)	0	0	0
COc1ccc(-c2c(C)nc3nc(-c4ccccc4)nn3c2N)cc1	-	0	0
O=C(CCNc1ccc(Cc2ccncc2)cc1)c1cccc([N+](=O)[O-])c1	0	0	0
CC(C)Cn1cncc1CNC1CCN(c2ccc3c(c2)OCO3)CC1	0	0	0
N#Cc1nnn(Cc2ccccc2)c1N	0	0	0
COc1ccccc1Nc1nc(-c2ccc(S(=O)(=O)N3CCCCC3)cc2)cs1	0	0	0

The last 6 entries again:

- Cc1ccc(CCC(=O)N2CCNCC2C(=O)N2CCCC2)cc1C (centres undefined) | SAM-II: 0; TPP: 0; PreQ1: 0
- COc1ccc(-c2c(C)nc3nc(-c4ccccc4)nn3c2N)cc1 | TPP: 0; PreQ1: 0
- O=C(CCNc1ccc(Cc2ccncc2)cc1)c1cccc([N+](=O)[O-])c1 | SAM-II: 0; TPP: 0; PreQ1: 0
- CC(C)Cn1cncc1CNC1CCN(c2ccc3c(c2)OCO3)CC1 | SAM-II: 0; TPP: 0; PreQ1: 0
- N#Cc1nnn(Cc2ccccc2)c1N | SAM-II: 0; TPP: 0; PreQ1: 0
- COc1ccccc1Nc1nc(-c2ccc(S(=O)(=O)N3CCCCC3)cc2)cs1 | SAM-II: 0; TPP: 0; PreQ1: 0